Experimental data as given in paper PMC12109034.
No constants are given. Whether binding was seen depends on the method and setting. Binding seen in cells or lysates may run through a third protein. A result given as binding can be weak or reduced; the word gives no strength. Where a sequence is shown, tags or fusion partners need not be part of it.

Protein sequences, listed by entry. Tags and fused reporters are not part of them. Lines headed by an entry give the natural chain unless they say otherwise; changes in a name come on top.
UniProt A0A3B6PNT1: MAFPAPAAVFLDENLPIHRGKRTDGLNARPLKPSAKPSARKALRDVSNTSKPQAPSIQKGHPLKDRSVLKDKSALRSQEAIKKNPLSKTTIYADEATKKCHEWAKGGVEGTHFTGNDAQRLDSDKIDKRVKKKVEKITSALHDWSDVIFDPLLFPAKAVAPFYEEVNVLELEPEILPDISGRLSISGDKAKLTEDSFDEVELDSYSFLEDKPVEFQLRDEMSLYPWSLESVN

How the values were obtained:
TdPP1::GFP (durum wheat) = test: co-IP; GFP-Trap agarose beads precipitate TdPP1::GFP (or GFP alone) from extracts of co-infiltrated N. benthamiana leaves; 2 h at 4 °C, 0.2% Nonidet P-40, 150 mM NaCl, pH 7.5; anti-HA and anti-GFP blots
TdPP1-cYFP (durum wheat) = test: split reporter; BiFC with nYFP and cYFP fusions in N. benthamiana leaf epidermal cells, confocal microscopy two days after co-infiltration

binding (TdPP1::GFP (durum wheat))	binding (TdPP1-cYFP (durum wheat))	Molecule
binds		TdRL1::HA (from UniProt A0A3B6PNT1)
binds		At-I2-HA (protein, UniProt Q9LTK0 1-191) MTEPKRGRVQWDEANIVEIESNKPVRQKITEPKTPYHPMMDDDGSLSPRGRAFDECVDDMQRAEELRNVLNDAAASSSRNSSQGSGGGGWSSSDEEEEEADPMDQDEEGSGSGKNERFNAHRKAHYDEFRKVKELRSSGSFYEEEEEEDDGAKGSKSETTTNSRHTKGGNKELDATKTVSGTSSSSSPELI
	binds	At-I2-nYFP (protein, UniProt Q9LTK0 1-191) MTEPKRGRVQWDEANIVEIESNKPVRQKITEPKTPYHPMMDDDGSLSPRGRAFDECVDDMQRAEELRNVLNDAAASSSRNSSQGSGGGGWSSSDEEEEEADPMDQDEEGSGSGKNERFNAHRKAHYDEFRKVKELRSSGSFYEEEEEEDDGAKGSKSETTTNSRHTKGGNKELDATKTVSGTSSSSSPELI
